Source: US20180244802A1 (DEUTSCHES ZENTRUM FUR NEURODEGENERATIVE ERKRANKUNGEN E V …, published 2018)
These are yes or no findings as the source states them, for the method shown. Some binding calls cover weakened binding; strength is not graded here.

B1: 007-169 (antibody, V domains shown)
VH: EVQLVQSGAEVKKPGESLKISCKGSGYSFTSYWIGWVRQMPGKGLEWMGIIYPGDSDTRYSPSFQGQVTISADKSISTAYLQWSSLKASDTAMYYCARDYGDYYFDYWGQGTLVTVSS
VL: QSALTQPRSVSGSPGQSVTISCTGTSSDVGGYNYVSWYQQHPGKAPKLMIYDVSKRPSGVPDRFSGSKSGNTASLTISGLQAEDEADYYCCSYAGSYTGVFGEGTKLTVL
notes: also called 007-169-HC; 007-169-LC
B2: 007-124 (antibody, human IgG1, V domains shown)
VH: EVQLVESGGGVGRPGGSLRLSCAASGFTFDDYGMSWVRQVPGKGLEWVSGINWSGADTGYADSVKGRFTISRDNAKNSLYLQMNSLRVEDTALYHCAREVGIAVTGYWFDPWGQGTLVTV
VL: SYELTQPPSVSVAPGQTARISCGGNHSESVHWYQQKPGQAPVLVVYDDSDRPSGIPERFSGSKSGNTATLTISRVEGGDEAEYYCQVWDSSSDHPGVVFGGGTKLTVL
notes: also called 007-124-HC; 007-124-LC
B3: 007-142 (antibody, V domains shown)
VH: B1 VH
VL: LTQPRSVSGSPGQSVTISCTGTSSDVGGYNYVSWYQQHPGKAPKLMIYDVSKRPSGVPDRFSGSKSGNTASLTISGLQAEDEADYYCCSYAGSYTGVFGGGTKLTVL
notes: also called 007-142-HC; 007-142-LC
B4: 008-218 (antibody, human IgG1, V domains shown)
VH: EVQLVESGGGLVQPGRSLRLSCAASGFTFDDYAMHWVRQVPGKGLEWVSGISWSSGSIGYADSVKGRFTISRDNAKNSLYLQMNSLRAEDTALYYCAKDRASSWYAYGMDVWGQGTLVTV
VL: NFMLTQPHSVSESPGKTVTISCTRSSGSIASNYVQWYQQRPGSSPTTVIYDDNQRPSGVPNRFSGSIDSSSNSASLIISGLKTEDEADYYCQSTRVFGGGTKLTVL
notes: also called 008-218-HC; 008-218-LC

The binders below were run against human ionotropic glutamate N-methyl-D-aspartate 1 receptor (GRIN1) (human) (UniProt Q05586) (assay: immunofluorescence staining of HEK293 cells transfected with wildtype NR1).

Binder | binding
B1 | binds
B2 | binds
B3 | binds
B4 | binds

The binders below were run against NMDAR in the mouse hippocampus (brain sections, primary hippocampal neurons) (mouse) (UniProt P35438) (assay: immunofluorescence staining of fixed brain sections).

Binder | binding
B1 | binds
B2 | binds
B3 | binds
B4 | binds

These binders were tested against human ionotropic glutamate N-methyl-D-aspartate 1 receptor (GRIN1) (human) (UniProt Q05586) (assay: immunofluorescence staining of NR1-transfected HEK293 cells with culture supernatant).

Binder | binding
B1 | binds
B2 | binds
B3 | binds
B4 | binds
